Results from article PMC4872777.
These are yes or no findings as the source states them, for the method shown. Binding seen in cells or lysates may run through a third protein. A result given as binding can be weak or reduced; the word gives no strength.

Chains of the proteins cited; added tags and fusions are not shown. Lines headed by an entry give the natural chain unless they say otherwise; changes in a name come on top.
UniProt P35613: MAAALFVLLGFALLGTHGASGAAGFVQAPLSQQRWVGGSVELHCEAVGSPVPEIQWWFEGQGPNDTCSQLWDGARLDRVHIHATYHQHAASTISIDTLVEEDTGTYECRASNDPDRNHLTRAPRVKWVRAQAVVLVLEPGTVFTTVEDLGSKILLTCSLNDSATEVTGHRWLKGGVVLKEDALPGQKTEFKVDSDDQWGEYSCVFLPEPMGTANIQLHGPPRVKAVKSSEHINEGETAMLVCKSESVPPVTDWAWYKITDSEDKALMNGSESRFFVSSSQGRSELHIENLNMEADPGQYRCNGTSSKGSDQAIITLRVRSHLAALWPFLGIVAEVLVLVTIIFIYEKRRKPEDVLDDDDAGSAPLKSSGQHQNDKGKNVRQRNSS
UniProt Q9Y4K3: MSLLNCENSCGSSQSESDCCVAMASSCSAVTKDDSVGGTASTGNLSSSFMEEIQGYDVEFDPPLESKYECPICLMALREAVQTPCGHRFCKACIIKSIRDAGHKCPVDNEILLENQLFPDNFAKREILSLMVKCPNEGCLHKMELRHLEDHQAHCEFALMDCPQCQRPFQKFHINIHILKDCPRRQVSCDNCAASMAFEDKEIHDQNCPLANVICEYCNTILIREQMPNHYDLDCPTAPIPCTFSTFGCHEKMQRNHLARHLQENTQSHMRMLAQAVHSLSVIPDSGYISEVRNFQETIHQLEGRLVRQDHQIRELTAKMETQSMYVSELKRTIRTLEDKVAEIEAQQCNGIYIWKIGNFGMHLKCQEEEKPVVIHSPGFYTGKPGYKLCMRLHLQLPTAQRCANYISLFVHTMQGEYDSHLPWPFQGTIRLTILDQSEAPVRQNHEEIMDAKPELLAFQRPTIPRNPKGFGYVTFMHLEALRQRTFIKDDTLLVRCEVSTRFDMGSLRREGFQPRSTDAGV

Molecular target: endogenous BSG (human (endogenous in SK-MEL-5 and SK-MEL-28)) (UniProt P35613)
Experiment: co-IP; endogenous proteins; SK-MEL-5 and SK-MEL-28 lysates immunoprecipitated with control IgG or anti-BSG antibody, immunoblot with anti-TRAF6

- binding: binds
Substance: endogenous TRAF6 (from UniProt Q9Y4K3 1-522)
